Our source for the binding values is PMC7021771.

Results are given in words; binding and its absence hold for the method and conditions named. In cells and extracts the contact can be indirect. Tags and fused reporters may be left off the sequences shown.

This assay concerns the target T1, CASZ1b, C-terminal 3xTy1 tagged (doxycycline inducible, in SMS-CTRtetCASZ1b cells) (human) (UniProt Q86V15).
T1 sequence: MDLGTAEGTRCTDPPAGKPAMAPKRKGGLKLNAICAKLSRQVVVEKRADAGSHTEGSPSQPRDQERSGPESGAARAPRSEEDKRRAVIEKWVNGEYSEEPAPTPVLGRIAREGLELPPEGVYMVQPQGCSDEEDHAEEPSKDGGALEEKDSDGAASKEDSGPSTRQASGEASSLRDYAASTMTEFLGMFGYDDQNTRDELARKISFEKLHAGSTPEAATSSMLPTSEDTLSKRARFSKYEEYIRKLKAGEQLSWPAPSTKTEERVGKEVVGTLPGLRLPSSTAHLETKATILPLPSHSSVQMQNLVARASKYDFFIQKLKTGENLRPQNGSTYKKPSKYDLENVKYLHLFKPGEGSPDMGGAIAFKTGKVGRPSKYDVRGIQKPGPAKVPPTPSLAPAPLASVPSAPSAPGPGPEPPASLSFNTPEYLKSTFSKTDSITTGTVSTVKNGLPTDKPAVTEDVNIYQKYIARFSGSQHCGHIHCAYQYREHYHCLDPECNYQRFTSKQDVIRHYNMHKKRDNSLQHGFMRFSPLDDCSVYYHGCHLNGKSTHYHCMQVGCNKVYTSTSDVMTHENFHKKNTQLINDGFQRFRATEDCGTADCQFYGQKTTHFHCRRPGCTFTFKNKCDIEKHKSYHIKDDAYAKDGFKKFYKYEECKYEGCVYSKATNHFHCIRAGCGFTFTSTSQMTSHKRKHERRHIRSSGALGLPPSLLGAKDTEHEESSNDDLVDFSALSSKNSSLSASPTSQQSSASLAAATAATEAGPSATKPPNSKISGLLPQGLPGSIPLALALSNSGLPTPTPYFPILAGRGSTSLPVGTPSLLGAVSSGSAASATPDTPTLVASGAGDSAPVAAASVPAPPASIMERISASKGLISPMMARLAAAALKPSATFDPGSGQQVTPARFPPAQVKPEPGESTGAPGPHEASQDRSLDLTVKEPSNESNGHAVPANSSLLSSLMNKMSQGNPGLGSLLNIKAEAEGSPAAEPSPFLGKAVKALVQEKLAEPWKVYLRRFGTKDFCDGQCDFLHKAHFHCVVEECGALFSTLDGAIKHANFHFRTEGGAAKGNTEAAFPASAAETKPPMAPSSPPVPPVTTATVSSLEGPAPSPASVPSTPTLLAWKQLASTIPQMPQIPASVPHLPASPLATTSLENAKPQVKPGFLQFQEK
The experiment in a line: co-IP; rabbit anti-CASZ1 antibody on Dynabead M-280 Sheep Anti-Rabbit IgG magnetic beads; whole cell extracts from CTRtetCASZ1b cells treated with Dox for 24 h, incubated 4 h at 4 °C; western blot. In general terms: Immunoblotting shows a protein as a band on a membrane.

B1: MYOG (protein, UniProt P15173 1-224)
chain: MELYETSPYFYQEPRFYDGENYLPVHLQGFEPPGYERTELTLSPEAPGPLEDKGLGTPEHCPGQCLPWACKVCKRKSVSVDRRRAATLREKRRLKKVNEAFEALKRSTLLNPNQRLPKVEILRSAIQYIERLQALLSSLNQEERDLRYRGGGGPQPGVPSECSSHSASCSPEWGSALEFSANPGDHLLTADPTDAHNLHSLTSIVDSITVEDVSVAFPDETMPN
B1: the binding result is “no binding”.
